Results on seven sequences are retold here after patent US20110281938.

Protein sequences, listed by entry. Tags and fused reporters are not part of them. Residues count along the entry.
UniProt P00748, 20-615: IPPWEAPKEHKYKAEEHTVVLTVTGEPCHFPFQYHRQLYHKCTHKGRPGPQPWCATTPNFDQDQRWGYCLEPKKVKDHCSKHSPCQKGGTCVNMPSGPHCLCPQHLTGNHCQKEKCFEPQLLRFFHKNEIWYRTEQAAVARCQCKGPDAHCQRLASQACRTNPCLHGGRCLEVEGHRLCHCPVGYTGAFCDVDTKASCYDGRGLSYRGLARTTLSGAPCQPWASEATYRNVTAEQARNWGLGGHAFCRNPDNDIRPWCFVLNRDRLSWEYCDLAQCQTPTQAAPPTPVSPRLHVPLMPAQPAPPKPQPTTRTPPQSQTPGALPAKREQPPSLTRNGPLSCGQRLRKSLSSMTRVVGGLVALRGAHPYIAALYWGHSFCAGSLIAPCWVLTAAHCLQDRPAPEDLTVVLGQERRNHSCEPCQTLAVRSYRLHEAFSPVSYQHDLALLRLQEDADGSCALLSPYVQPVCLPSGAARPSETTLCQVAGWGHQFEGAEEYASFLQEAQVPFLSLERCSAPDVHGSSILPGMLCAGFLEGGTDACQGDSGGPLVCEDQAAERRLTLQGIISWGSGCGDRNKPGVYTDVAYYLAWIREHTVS

pKd: −log10 of the molar value. For some of these results: Negatives hold for the conditions tested. For some of these results: The comparison behind a weaker result is the experiment's own reference, which may not be listed here. For some of these results: Where a protein sequence is shown, tags need not be part of it. For some of these results: The exact form of at least one protein or probe is not confirmed. For some of these results: The direction of at least one scale is not stated here.

In series [1] the target is TFPI (tissue factor pathway inhibitor, full-length) (Homo sapiens) (UniProt P10646). In words: competition with a labelled probe. Particulars: 2'-OMe A/G/U and mC18, other C 2'-deoxy, 3' idT; fails binding-competition criterion; purified recombinant protein; variant of ARC17480.
Series [2] addresses TFPI (plasma, hemophilia A pool) (Homo sapiens) (UniProt P10646). In words: activity assay. Particulars: 2'-OMe except dC9, dC14, dC16, dC25; 5' 40 kDa PEG via amine linker; no idT; CAT thrombin generation in hemophilia A plasma, similar to ARC19499; protein in an extract; synthetic backbone; dose not given here.
For a further series, the target named is TFPI-His (UniProt P10646). In words: filter binding. Particulars: 2'-OMe A/G/U, 2'-deoxy C, 3' idT; reduced vs full-length TFPI; purified recombinant protein; label: radiolabel.
Series [3] has as its target T1, TFPI K3-C-terminal domain (UniProt P10646).
T1 sequence: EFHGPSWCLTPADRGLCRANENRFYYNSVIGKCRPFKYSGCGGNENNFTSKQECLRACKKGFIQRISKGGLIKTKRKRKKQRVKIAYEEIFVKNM
In words: filter binding. The settings on record: 2'-OMe A/G/U, 2'-deoxy C, 3' idT; very weak, only at higher protein concentrations; purified recombinant protein; protein details: N-terminal 6-His, E. coli expressed; label: radiolabel.

The target of the next series is Factor XII (UniProt P00748). The series can be described thus: filter binding. Particulars: 2'-OMe A/G/U, 2'-deoxy C, 3' idT; some binding at high protein, eliminated by 0.1 mg/mL tRNA, likely non-specific; purified native protein; label: radiolabel.
Another series concerns the target T2, TFPI C-terminal peptide (UniProt P10646).
T2 sequence: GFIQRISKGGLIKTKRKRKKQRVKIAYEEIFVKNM
In words: filter binding. The settings on record: 2'-OMe A/G/U, 2'-deoxy C, 3' idT; weak at high peptide (up to 10 uM), neutravidin capture; synthetic protein; protein details: N-terminal biotin, synthetic peptide; label: radiolabel.

Series [4] addresses TFPI (tissue factor pathway inhibitor, full-length) (Homo sapiens) (UniProt P10646). The series can be described thus: filter binding. The settings on record: 2'-OMe A/G/U, 2'-deoxy C, 3' idT, purified recombinant protein, label: radiolabel.
For series [5] the target is unchanged. The series can be described thus: ELONA. Particulars: 5' 40 kDa PEG via hexylamine, 2'-OMe A/G/U, 2'-deoxy C, 3' idT; plate-immobilised TFPI, anti-PEG detection, DPBS 0.1% BSA, RT; purified recombinant protein; variant of ARC17480.
The target of series [6] is TFPI (recombinant, Novo Nordisk cell line) (Homo sapiens) (UniProt P10646). In words: inhibition of the protein. Particulars: 5' 40 kDa PEG via hexylamine, 2'-OMe A/G/U, 2'-deoxy C, 3' idT; apparent binding constant (called Ki in p826) from FXa protection, 3 mM CaCl2; purified recombinant protein; protein details: purified from Novo Nordisk cell line; variant of ARC17480.

Series [7] deals with TFPI (tissue factor pathway inhibitor, full-length) (Homo sapiens) (UniProt P10646). In words: inhibition of the protein. Particulars: 5' 40 kDa PEG via hexylamine, 2'-OMe A/G/U, 2'-deoxy C, 3' idT, HBS 2 mM CaCl2, 37 C, purified recombinant protein, variant of ARC17480.

In the case of “GGAAUAUACUUGGCUCGCUAGGUGCGUAUAUA [ARC33166]”, the binding signal (fold IC50 of ARC17480) in [1] is over 5.
“GGAAUAUACUUGGCUCGUUAGGUGCGUAU [ARC21389]”: the “functional effect of the aptamer” value in series [2] is reported as “active”.
Same read-out and setting: to “GGAAUAUACUUGGCUCGUUAGGUGCGUAUA [ARC21387]” belongs “active”; to “GGAAUAUACUUGGCUCGUUAGGUGCGUAUAU [ARC21385]”, “active”.
What is called pKd is the Kd on a negative log10 scale, so that one unit is a factor of ten. In the case of “GGAAUAUACUUGGCUCGUUAGGUGCGUAUAUA [ARC17480]”, the binding result with TFPI-His is given as “binds more weakly”; in series [3], “binds more weakly”; with Factor XII, “binds more weakly”; in the series with TFPI C-terminal peptide, “binds more weakly”; in [4] (0.1 mg/mL unfractionated heparin completely abolished binding), “no binding”. Also, the pKd in series [4] (mean of mono- (4.0±1.5) and biphasic (1.7±0.7) fits, no tRNA) is 8.54; in series [4] (with 0.1 mg/mL tRNA) it was 7.38.
“GGAAUAUACUUGGCUCGUUAGGUGCGUAUAUA [ARC19499 (BAX499)]”: the pKd in [5] is 7.52; in series [6], 7.30; in series [7] (apparent KD from FXa protection), 8.74; in series [7] (apparent KD from TF:FVIIa protection), 8.92.
For “GGAAUAUACUUGGCUCGUUAGGUGCGUAUAUA [ARC21383]”, the “functional effect of the aptamer” value in series [2] was “active”.
